Results reported in publication PMC5821942, “Crystal structure of IspF from Bacillus subtilis and absence of protein complex assembly amongst IspD/IspE/IspF enzymes in the MEP pathway” (Bioscience Reports, 2018).
Results are given in words; binding and its absence hold for the method and conditions named. Sequences can lack the tags named with a protein.

Protein sequences, listed by entry. Tags and fused reporters are not part of them.
UniProt Q06755: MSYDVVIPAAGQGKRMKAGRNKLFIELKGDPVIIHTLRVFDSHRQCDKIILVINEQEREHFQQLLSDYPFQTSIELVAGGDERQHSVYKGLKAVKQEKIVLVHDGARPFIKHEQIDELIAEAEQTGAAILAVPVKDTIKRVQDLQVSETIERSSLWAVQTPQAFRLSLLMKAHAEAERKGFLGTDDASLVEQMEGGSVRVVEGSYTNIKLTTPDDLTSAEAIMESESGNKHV

Columns and labels:
[1] = biological target: T1, GST fusion of CDPME kinase (IspE) from Bacillus subtilis (Bacillus subtilis 168) (UniProt P37550); assay: SEC; Superdex75 10/300 GL; single B. subtilis proteins and triple mixture (0.2 mg each, 250 μl); 100 mM NaCl, 25 mM Tris/HCl pH 8.0; 1 mM MgCl2, 1 mM MEP, 1 mM CTP if IspD present; 30°C 30 min; both purified
T1 sequence: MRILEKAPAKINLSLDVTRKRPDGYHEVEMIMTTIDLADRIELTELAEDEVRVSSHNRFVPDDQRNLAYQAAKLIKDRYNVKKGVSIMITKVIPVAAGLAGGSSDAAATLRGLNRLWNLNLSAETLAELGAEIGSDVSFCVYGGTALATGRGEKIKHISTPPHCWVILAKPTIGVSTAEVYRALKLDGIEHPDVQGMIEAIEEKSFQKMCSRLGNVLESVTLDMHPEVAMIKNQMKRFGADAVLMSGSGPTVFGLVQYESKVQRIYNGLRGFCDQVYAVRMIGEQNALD

[2] = biological target: T1, GST fusion of CDPME kinase (IspE) from Bacillus subtilis (Bacillus subtilis 168); assay: native gel or EMSA; native gel shift of mixtures of two or three proteins, 2.5 μg/μl each, 10% glycerol, 25 mM Tris/HCl pH 8.0, 100 mM NaCl, 12 μl; 1 mM MgCl2, 1 mM MEP, 1 mM CTP if IspD present; 30°C 30 min; 8% native PAGE, 1x TBE, 4°C; both purified

- binding [2]: no binding (tested: 2.5 μg/μl each)
Substance: 2-C-Methyl-D-erythritol-4-phosphate cytidyltransferase (IspD) from Bacillus subtilis (from UniProt Q06755 1-232) (enzyme)
- binding [1]: no binding (tested: 0.2 mg each in 250 μl)
